# From article PMC12221285
# T1: HA-USP18A (human) (UniProt Q9UMW8)
# T1 sequence: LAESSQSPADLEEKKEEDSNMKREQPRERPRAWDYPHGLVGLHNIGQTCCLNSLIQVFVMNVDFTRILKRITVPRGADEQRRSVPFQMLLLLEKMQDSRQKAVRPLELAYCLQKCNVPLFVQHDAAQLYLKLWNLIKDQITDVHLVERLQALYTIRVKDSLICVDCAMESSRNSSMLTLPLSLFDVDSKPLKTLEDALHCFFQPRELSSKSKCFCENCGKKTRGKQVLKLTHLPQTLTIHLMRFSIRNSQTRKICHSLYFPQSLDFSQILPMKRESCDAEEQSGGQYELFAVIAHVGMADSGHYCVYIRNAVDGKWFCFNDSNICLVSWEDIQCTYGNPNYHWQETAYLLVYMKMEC
# T2: HA-USP18B (human) (UniProt Q9UMW8)
# T2 sequence: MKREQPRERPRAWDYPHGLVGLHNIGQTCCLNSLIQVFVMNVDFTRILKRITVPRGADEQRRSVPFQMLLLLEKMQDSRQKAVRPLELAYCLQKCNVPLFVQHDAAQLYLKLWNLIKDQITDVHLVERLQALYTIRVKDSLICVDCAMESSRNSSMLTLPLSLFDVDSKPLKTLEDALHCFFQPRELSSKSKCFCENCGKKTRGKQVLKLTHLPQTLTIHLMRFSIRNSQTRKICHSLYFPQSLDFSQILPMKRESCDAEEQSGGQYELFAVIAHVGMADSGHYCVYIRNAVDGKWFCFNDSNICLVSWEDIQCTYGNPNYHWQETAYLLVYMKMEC
# T3: USP18 CD (USP catalytic domain only) (human) (UniProt Q9UMW8)
# T3 sequence: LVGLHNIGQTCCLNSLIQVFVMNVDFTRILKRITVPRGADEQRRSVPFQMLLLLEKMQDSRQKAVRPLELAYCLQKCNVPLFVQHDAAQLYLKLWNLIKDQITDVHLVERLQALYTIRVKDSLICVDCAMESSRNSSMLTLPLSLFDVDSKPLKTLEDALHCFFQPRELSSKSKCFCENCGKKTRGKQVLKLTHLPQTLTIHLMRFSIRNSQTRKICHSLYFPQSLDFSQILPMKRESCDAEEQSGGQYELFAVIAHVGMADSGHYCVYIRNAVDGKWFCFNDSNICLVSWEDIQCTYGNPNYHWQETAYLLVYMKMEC
# B1: HA-USP18B (enzyme, UniProt Q9UMW8 36-372)
# chain: MKREQPRERPRAWDYPHGLVGLHNIGQTCCLNSLIQVFVMNVDFTRILKRITVPRGADEQRRSVPFQMLLLLEKMQDSRQKAVRPLELAYCLQKCNVPLFVQHDAAQLYLKLWNLIKDQITDVHLVERLQALYTIRVKDSLICVDCAMESSRNSSMLTLPLSLFDVDSKPLKTLEDALHCFFQPRELSSKSKCFCENCGKKTRGKQVLKLTHLPQTLTIHLMRFSIRNSQTRKICHSLYFPQSLDFSQILPMKRESCDAEEQSGGQYELFAVIAHVGMADSGHYCVYIRNAVDGKWFCFNDSNICLVSWEDIQCTYGNPNYHWQETAYLLVYMKMEC
# B2: HA-USP18A (enzyme, UniProt Q9UMW8 16-372)
# chain: LAESSQSPADLEEKKEEDSNMKREQPRERPRAWDYPHGLVGLHNIGQTCCLNSLIQVFVMNVDFTRILKRITVPRGADEQRRSVPFQMLLLLEKMQDSRQKAVRPLELAYCLQKCNVPLFVQHDAAQLYLKLWNLIKDQITDVHLVERLQALYTIRVKDSLICVDCAMESSRNSSMLTLPLSLFDVDSKPLKTLEDALHCFFQPRELSSKSKCFCENCGKKTRGKQVLKLTHLPQTLTIHLMRFSIRNSQTRKICHSLYFPQSLDFSQILPMKRESCDAEEQSGGQYELFAVIAHVGMADSGHYCVYIRNAVDGKWFCFNDSNICLVSWEDIQCTYGNPNYHWQETAYLLVYMKMEC
# Tests used:
# Experiment in all cases: co-IP; HEK-293T co-transfected for 24-48 h; lysates in NETN buffer (20 mM Tris-Cl pH 8.0, 100 mM NaCl, 0.5 mM EDTA, 0.5% NP-40); anti-FLAG, anti-HA or anti-Myc beads 1 h to 1 h 30 at 4 °C; four washes; western blot
# [1] = target: T1, HA-USP18A (human)
# [2] = target: T2, HA-USP18B (human)
# [3] = target: T3, USP18 CD (USP catalytic domain only) (human)
# [4] = target: Myc-USP41 (human)
molecule,measurement,setting,value
Myc-USP41 (human),binding,[1],binds
same,binding,[2],binds
USP41 CD (USP catalytic domain only) (human) (domain or fragment),binding,[3],binds
B1,binding,[4],binds
B2,binding,[4],binds

# Results are given in words; binding and its absence hold for the method and conditions named. In cells and extracts the contact can be indirect. A result given as binding can be weak or reduced; the word gives no strength. For some assays here: Tags and fused reporters may be left off the sequences shown.
